The list is a part of this screen's results and no random one: it gathers tests that were run many times, whatever their T/C, doses with no T/C, and many T/C values between a quarter and a half above the control. Further doses and runs are listed elsewhere. T/C is the treated group as % of the vehicle group. Some doses have a count of surviving animals in place of a T/C: the source files T/C as zero there, which appears to mark a toxic dose or a test without result, not a measured value. Some doses without a T/C left all or most animals alive at the check, yet need not have been tolerated: survival well below the control is almost never listed, so the zero probably covers shortened survival too. Counts of survivors are from the toxicity check (mostly the fifth day) where no day follows; animals may have died later. Schedule codes are those of the source, taken here to give the interval after Q, in days (D) or hours (H), and the number of doses after X. Some schedules carry Z or #; the key to these is not given. Some molecules as drawn cover several salts, stereoisomers or complexes of the source; a dose is that of the sample tested. Some entries were tested several times; the results are listed from low to high. Where survival is the endpoint, the PubChem record calls one and a half times the control and up active, and a quarter to a half above the control has no call in these data; cut-offs in other NCI protocols can differ. Some T/C values are followed by the survivors on the day toxicity was checked, most often the fifth; without a count, all were alive then.
Tested on: L1210 leukemia ip in BDF1 mice, survival T/C
Assay: NCI In Vivo Anticancer Drug Screen. Data for tumor model L1210 Leukemia (intraperitoneal) in B6D2F1 (BDF1) mice
Conditions: T/C endpoint: mean survival time, higher T/C = longer survival
[1] = dose: 400.0 mg/kg/injection, schedule: Q01DX001 (ip), vehicle: saline
[2] = dose: 200.0 mg/kg/injection, schedule: Q01DX001 (ip), vehicle: saline
[3] = dose: 100.0 mg/kg/injection, schedule: Q01DX009 (ip), vehicle: saline
[4] = dose: 200.0 mg/kg/injection, schedule: Q01DX009 (ip), vehicle: saline
[5] = dose: 300.0 mg/kg/injection, schedule: Q01DX009 (ip), vehicle: saline
[6] = dose: 400.0 mg/kg/injection, schedule: Q01DX009 (ip), vehicle: saline
[7] = dose: 100.0 mg/kg/injection, schedule: Q04DX003 (ip), vehicle: saline with Tween-80
[8] = dose: 200.0 mg/kg/injection, schedule: Q04DX003 (ip), vehicle: saline with Tween-80
[9] = dose: 400.0 mg/kg/injection, schedule: Q04DX003 (ip), vehicle: saline with Tween-80

## CS(=O)(=O)OCCC(=O)NCNC(=O)CCOS(C)(=O)=O
dose: 12.3 mg/kg/injection, schedule: Q01DX Z (ip), vehicle: carboxymethylcellulose (CMC)
  T/C: 129 % of control
dose: 16.0 mg/kg/injection, schedule: Q01DX Z (ip), vehicle: carboxymethylcellulose (CMC)
  T/C: 125 % of control
dose: 24.0 mg/kg/injection, schedule: Q01DX Z (ip), vehicle: carboxymethylcellulose (CMC)
  T/C: 136 % of control
dose: 28.0 mg/kg/injection, schedule: Q01DX Z (ip), vehicle: carboxymethylcellulose (CMC)
  T/C: 148 % of control
dose: 36.0 mg/kg/injection, schedule: Q01DX Z (ip), vehicle: carboxymethylcellulose (CMC)
  T/C: 141 and 145 % of control
dose: 42.0 mg/kg/injection, schedule: Q01DX Z (ip), vehicle: carboxymethylcellulose (CMC)
  T/C: 136 % of control
dose: 54.0 mg/kg/injection, schedule: Q01DX Z (ip), vehicle: carboxymethylcellulose (CMC)
  T/C: 125 % of control
dose: 61.0 mg/kg/injection, schedule: Q01DX Z (ip), vehicle: carboxymethylcellulose (CMC)
  T/C: 134 % of control
dose: 63.0 mg/kg/injection, schedule: Q01DX Z (ip), vehicle: carboxymethylcellulose (CMC)
  T/C: 140 % of control
dose: 120.0 mg/kg/injection, schedule: Q01DX Z (ip), vehicle: carboxymethylcellulose (CMC)
  survivor count: 6 of 6
dose: 135.0 mg/kg/injection, schedule: Q01DX Z (ip), vehicle: carboxymethylcellulose (CMC)
  survivor count: 5 of 6
dose: 180.0 mg/kg/injection, schedule: Q01DX Z (ip), vehicle: carboxymethylcellulose (CMC)
  survivor count: 3 of 6

## OCCNC(c1ccc(Cl)cc1)C(O)c1ccc(Cl)cc1 (stereo unspecified)
[1]
  survivor count: 0 of 4

## On1ccc(N2CCOCC2)cc1=Nc1ccccc1
[2]
  survivor count: 0 of 6
[1]
  survivor count: 0 of 6

## NC(N)=NO
dose: 75.0 mg/kg/injection, schedule: Q01DX Z (ip), vehicle: other
  T/C: 129 % of control [4 of 6 alive]
[3]
  T/C: 139 % of control
dose: 150.0 mg/kg/injection, schedule: Q01DX009 (ip), vehicle: saline
  T/C: 128 % of control
[4]
  T/C: 133 and 134 % of control
dose: 200.0 mg/kg/injection, schedule: Q01DX Z (ip), vehicle: saline
  T/C: 125 % of control
dose: 288.0 mg/kg/injection, schedule: Q01DX009 (ip), vehicle: saline
  T/C: 127 % of control
[5]
  T/C: 136 % of control
[6]
  T/C: 139 % of control
  survivor count: 3 of 10
dose: 400.0 mg/kg/injection, schedule: Q01DX Z (ip), vehicle: saline
  T/C: 128 % of control [9 of 10 alive]
dose: 433.0 mg/kg/injection, schedule: Q01DX009 (ip), vehicle: saline
  T/C: 130 % of control
dose: 500.0 mg/kg/injection, schedule: Q01DX Z (ip), vehicle: saline
  survivor count: 0 of 10
dose: 600.0 mg/kg/injection, schedule: Q01DX009 (ip), vehicle: saline
  survivor count: 0 of 10
dose: 600.0 mg/kg/injection, schedule: Q01DX Z (ip), vehicle: saline
  survivor count: 0 of 10
dose: 650.0 mg/kg/injection, schedule: Q01DX009 (ip), vehicle: saline
  survivor count: 4 of 10
dose: 732.0 mg/kg/injection, schedule: Q03HX024 (ip), vehicle: saline
  survivor count: 0 of 10
dose: 800.0 mg/kg/injection, schedule: Q01DX009 (ip), vehicle: saline
  survivor count: 0 of 10
dose: 800.0 mg/kg/injection, schedule: Q04DX003 (ip), vehicle: saline
  survivor count: 0 of 10
dose: 975.0 mg/kg/injection, schedule: Q01DX009 (ip), vehicle: saline
  survivor count: 0 of 10
dose: 1463.0 mg/kg/injection, schedule: Q01DX009 (ip), vehicle: saline
  survivor count: 0 of 10

## Cn1cc(C=O)c2nccnc21
[5]
  survivor count: 0 of 6
dose: 400.0 mg/kg/injection, schedule: Q04DX003 (ip), vehicle: saline
  survivor count: 0 of 6

## Cc1ccc(CCCC#N)[nH]1
dose: 400.0 mg/kg/injection, schedule: Q01DX001 (sc), vehicle: carboxymethylcellulose (CMC)
  survivor count: 1 of 4

## Cc1cc(CN(C)C)cc(C(C)C)c1O
dose: 50.0 mg/kg/injection, schedule: Q01DX009 (ip), vehicle: saline with Tween-80
  survivor count: 2 of 6
dose: 100.0 mg/kg/injection, schedule: Q01DX009 (ip), vehicle: saline with Tween-80
  survivor count: 0 of 6
dose: 200.0 mg/kg/injection, schedule: Q01DX009 (ip), vehicle: saline with Tween-80
  survivor count: 0 of 6
dose: 400.0 mg/kg/injection, schedule: Q01DX009 (ip), vehicle: saline with Tween-80
  survivor count: 0 of 6

## [NH-]C(Cc1ccccc1)C(=O)O.[NH-]C(Cc1ccccc1)C(=O)O.[Ni+2] (stereo unspecified)
[7]
  survivor count: 3 of 3
[8]
  survivor count: 1 of 3
[9]
  survivor count: 0 of 3

## NC(=O)C1(c2ccccc2)CC1
[6]
  survivor count: 3 of 6

## COC1=CC(=O)C=CC1=O
dose: 12.0 mg/kg/injection, schedule: Q01DX009 (ip), vehicle: saline
  survivor count: 0 of 6
dose: 25.0 mg/kg/injection, schedule: Q01DX009 (ip), vehicle: saline
  survivor count: 0 of 6
dose: 50.0 mg/kg/injection, schedule: Q01DX009 (ip), vehicle: saline
  survivor count: 0 of 6
[3]
  survivor count: 0 of 6
[4]
  survivor count: 0 of 6
[6]
  survivor count: 0 of 6

## COc1ccc(/C=C2\CS(=O)(=O)C/C(=C\c3ccc(OC)cc3)C2=O)cc1
[2]
  survivor count: 6 of 6

## Cc1ncc(CCl)c2c1OC(C)(C)OC2
dose: 300.0 mg/kg/injection, schedule: Q01DX001 (ip), vehicle: saline
  survivor count: 0 of 6
[1]
  survivor count: 1 of 4

## CCOC(=O)Cc1ccccc1
[7]
  T/C: 126 % of control
[8]
  T/C: 139 % of control
[9]
  T/C: 137 % of control

## CNC(=O)Oc1ccc(Br)cc1Br
dose: 400.0 mg/kg/injection, schedule: Q01DX009 (ip), vehicle: Klucel (hydroxypropylcellulose) (HPC)
  survivor count: 2 of 6

## c1ccc(-c2n[nH]c(-c3ccccn3)n2)nc1
dose: 25.0 mg/kg/injection, schedule: Q01DX009 (ip), vehicle: Klucel (hydroxypropylcellulose) (HPC)
  survivor count: 1 of 3
dose: 50.0 mg/kg/injection, schedule: Q01DX009 (ip), vehicle: Klucel (hydroxypropylcellulose) (HPC)
  survivor count: 1 of 3
dose: 100.0 mg/kg/injection, schedule: Q01DX009 (ip), vehicle: Klucel (hydroxypropylcellulose) (HPC)
  survivor count: 0 of 3
dose: 200.0 mg/kg/injection, schedule: Q01DX009 (ip), vehicle: Klucel (hydroxypropylcellulose) (HPC)
  survivor count: 0 of 3

## O=C1C(Cl)=C(NCCCCCCNC2=C(Cl)C(=O)c3ccccc3C2=O)C(=O)c2ccccc21
[2]
  survivor count: 2 of 4
[1]
  survivor count: 0 of 4

## COc1ccc(SC2CCCCC2OS(C)(=O)=O)cc1 (stereo unspecified)
dose: 400.0 mg/kg/injection, schedule: Q01DX001 (ip), vehicle: Klucel (hydroxypropylcellulose) (HPC)
  survivor count: 2 of 6

## C/C(=C\c1ccccc1)C(=O)c1ccccc1
dose: 25.0 mg/kg/injection, schedule: Q01DX009 (ip), vehicle: water
  survivor count: 6 of 6
dose: 50.0 mg/kg/injection, schedule: Q01DX009 (ip), vehicle: water
  survivor count: 6 of 6
dose: 100.0 mg/kg/injection, schedule: Q01DX009 (ip), vehicle: water
  survivor count: 6 of 6
dose: 200.0 mg/kg/injection, schedule: Q01DX009 (ip), vehicle: water
  survivor count: 6 of 6
dose: 400.0 mg/kg/injection, schedule: Q01DX009 (ip), vehicle: water
  survivor count: 3 of 6 and 5 of 6

Reference: PubChem BioAssay AID248 (DTP/NCI, 2004)
